{"source": "paper PMC9902533", "key": {"[1]": {"tested_on": "Immunoglobulin E kappa (recombinant, clone AbD18705_hIgE, HCA190) (human)", "experiment": "microchip free-flow electrophoresis, single-molecule counting (DigitISA)", "conditions": "40 nM IgE, 50 pM aptamer, complex 21.7 pM; 10 mM HEPES pH 7.4, 0.05% Tween-20, room temperature (IgE; fibrils and exosomes same buffer); FUS: 50 mM Tris-HCl pH 7.4, 25 mM KCl, 0.02% Tween-20, on-chip desalting; commercial protein; label: 5'-Atto488; folded or branched DNA"}, "[2]": {"molecular_target": "alpha-synuclein fibrils (human) (UniProt P37840)", "experiment": "microchip free-flow electrophoresis, single-molecule counting (DigitISA)", "conditions": "10 nM aptamer, bound probe 18.7 pM; 10 mM HEPES pH 7.4, 0.05% Tween-20, room temperature (IgE; fibrils and exosomes same buffer); FUS: 50 mM Tris-HCl pH 7.4, 25 mM KCl, 0.02% Tween-20, on-chip desalting; recombinant protein; label: 5'-Alexa488; folded or branched DNA"}, "[3]": {"molecular_target": "alpha-synuclein fibrils (human) (UniProt P37840)", "experiment": "binding assay", "conditions": "10 mM HEPES pH 7.4, 0.05% Tween-20, room temperature (IgE; fibrils and exosomes same buffer); FUS: 50 mM Tris-HCl pH 7.4, 25 mM KCl, 0.02% Tween-20, on-chip desalting; recombinant protein; label: 5'-Alexa488; folded or branched DNA"}, "[4]": {"molecular_target": "alpha-synuclein oligomers (human) (UniProt P37840)", "experiment": "binding assay", "conditions": "10 mM HEPES pH 7.4, 0.05% Tween-20, room temperature (IgE; fibrils and exosomes same buffer); FUS: 50 mM Tris-HCl pH 7.4, 25 mM KCl, 0.02% Tween-20, on-chip desalting; recombinant protein; label: 5'-Alexa488; folded or branched DNA"}}, "note": "Construct, isoform or probe ends are uncertain for at least one entry."}
{"sequence": "TGGGGCACGTTTATCCGTCCCTCCTAGTGGCGTGCCCC [IgE aptamer]", "values": [{"measurement": "binding result", "setting": "[1]", "value": "binds"}]}
{"sequence": "TTTTGCCTGTGGTGTTGGGGCGGGTGCG [T-SO508 aptamer]", "values": [{"measurement": "binding result", "setting": "[2]", "value": "binds"}, {"measurement": "binding result", "setting": "[3]", "value": "binds"}]}
{"sequence": "TTTTGGGTCGGCTGTCCGTGGGTGGGGA [T-SO606 aptamer]", "values": [{"measurement": "binding result", "setting": "[4]", "value": "binds"}]}
